Measured data: PubChem BioAssay AID1259308 (NCATS, 2017)
Test: 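Candidate targets for better recombinant protein yield in mammalian cells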 (primary screen). Cells: human HEK293 embryonic kidney cells stably expressing firefly luciferase (HEK-CMV-Luc2-Hygro). Knock-down reagent: single siRNA against human genes, 0.8 pmol siRNA per well. Duration: 72 h. Measurement: 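Reporter luminescence and viable-cell signal on separate replicate plates, given as percent of non-targeting control and median/MAD z-scores, plus per-cell luciferase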. Scale: total luciferase, z-score and total luciferase, % of control: higher = more reporter protein produced. Active means: 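Active when the median/MAD z-score for overall luciferase is greater than 3; a gene was taken forward for validation with new siRNAs if at least two of its three siRNAs passed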. Calls: active = raised luciferase; inactive = no rise.
Here is an unselected part of about 59,000 reagents tested. Of all reagents, about 1,510 (2.6%) were called active. 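Calls use total luciferase alone and ignore viability, so some active siRNAs may act by altering cell number.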 Reagents against one gene are numbered here. Further read-outs or replicates are left out here.

For KANSL1 #1, what does the deposit list?
total luciferase, z-score: -0.592; total luciferase, % of control: 70.1; activity call: inactive

How did the screen score KANSL1 #2?
total luciferase, z-score: 0.438; total luciferase, % of control: 90.6; activity call: inactive

How did the screen score KANSL1 #3?
total luciferase, z-score: -0.574; total luciferase, % of control: 70.5; activity call: inactive

With ANKRD39 #1, what was measured?
total luciferase, z-score: 0.159; total luciferase, % of control: 85.1; activity call: inactive

What is on record for ANKRD39 #2?
total luciferase, z-score: 0.578; total luciferase, % of control: 93.4; activity call: inactive

With ANKRD39 #3, what does the deposit list?
total luciferase, z-score: 2.16; total luciferase, % of control: 125; activity call: inactive

Which result is listed for CDC25B #1?
total luciferase, z-score: 0.161; total luciferase, % of control: 85.1; activity call: inactive

What did the screen give for CDC25B #2?
total luciferase, z-score: -1.53; total luciferase, % of control: 51.5; activity call: inactive

What did the screen give for CDC25B #3?
total luciferase, z-score: 0.127; total luciferase, % of control: 84.4; activity call: inactive

With NAMPT #1, how do the results read?
total luciferase, z-score: -0.536; total luciferase, % of control: 71.2; activity call: inactive

What did the screen give for NAMPT #2?
total luciferase, z-score: -1.43; total luciferase, % of control: 53.5; activity call: inactive

What did the screen give for NAMPT #3?
total luciferase, z-score: 0.398; total luciferase, % of control: 89.8; activity call: inactive

Copied from the entries so far, 2 entries:
KANSL1 #2 — total luciferase, z-score: 0.438; total luciferase, % of control: 90.6; activity call: inactive
KANSL1 #3 — total luciferase, z-score: -0.574; total luciferase, % of control: 70.5; activity call: inactive
